At least one compound was matched to its structure with a doubt left.
System: elderly patients (≥60 years) with essential hypertension
Test: […] study: mean sitting (brachial) blood pressure and pulse pressure
Assay type: in vivo, human
Conditions: Week 12 to Week 52; compared with LCZ696 group
From the text: The study enrolled patient from 5 Dec. 2012 to 8 Apr. 2015.
Superiority testing is also planned for the key secondary efficacy assessment, i.e. the reduction in mean central aortic PP (CAPP) after 12 weeks of treatment, and other secondary efficacy assessments such as mean CASP and CAPP after 52 weeks of treatment. Mean aPWV, msSBP, msDBP, msPP, mean ambulatory (ma) BP, maPP, and MAP will also be measured after 12 and 52 weeks of treatment.

SMILES: CCCc1nc(C(C)(C)O)c(C(=O)O)n1Cc1ccc(-c2ccccc2-c2nnn[nH]2)cc1 [Olmesartan, reference compound]
- patients requiring add-on amlodipine and/or HCTZ: higher percentage of patients

— patent US10596151B2, “Methods and pharmaceutical compositions for reducing arterial stiffness with a combination of a therapeutic agent blocking the angiotensin receptor and a therapeutic agent inhibiting the NEP enzyme” (Novartis AG, priority 2015, dated 2020)
